Assay results: patent publication US4956345A, “2-alkynyladenosines as antihypertensive agents” (Yamasa Shoyu Kabushiki Kaisha, priority 1985, dated 1990)
Some entries share one result that the patent states for a list of compounds.

Test system: blood pressure in SHR
Experiment: Test 1: effect on the blood pressure in SHR, oral, tail artery sphygmomanometer
Type: in vivo, spontaneously hypertensive rats (SHR), male
Method: To twelve- to fifteen-week-old male SHRs were orally administered test compounds each suspended in 0.5% CMC/physiological saline at a rate of 2 ml/kg. The blood pressure of the thus treated SHRs was measured by means of a tail artery sphygmomanometer (supplied by Nalco Co., Model PE-300) prior to the oral administration and at 2, 4, 6 and 8 hours thereafter. Reduction in blood pressure was calculated on the basis of the values thus obtained, and the maximum reduction levels attained by the respective compounds are summarized in TABLE 2. Each test compound was evaluated with a group of 4 rats.

SMILES | sedative effect
CCCCC#Cc1nc(N)c2ncn([C@@H]3O[C@H](CO)[C@@H](O)[C@H]3O)c2n1 [Compound 2] | sedative effect was observed
CCCCCC#Cc1nc(N)c2ncn([C@@H]3O[C@H](CO)[C@@H](O)[C@H]3O)c2n1 [Compound 3] | sedative effect was observed
CCCCCCC#Cc1nc(N)c2ncn([C@@H]3O[C@H](CO)[C@@H](O)[C@H]3O)c2n1 [Compound 4] | sedative effect was observed
